# These are yes or no findings as the source states them, for the method shown. Binding seen in cells or lysates may run through a third protein. A result given as binding can be weak or reduced; the word gives no strength.
# B1: CLOCK (in Bmal1 immunoprecipitates of Fig. 4i) (protein, UniProt O15516 1-846)
# chain: MLFTVSCSKMSSIVDRDDSSIFDGLVEEDDKDKAKRVSRNKSEKKRRDQFNVLIKELGSMLPGNARKMDKSTVLQKSIDFLRKHKEITAQSDASEIRQDWKPTFLSNEEFTQLMLEALDGFFLAIMTDGSIIYVSESVTSLLEHLPSDLVDQSIFNFIPEGEHSEVYKILSTHLLESDSLTPEYLKSKNQLEFCCHMLRGTIDPKEPSTYEYVKFIGNFKSLNSVSSSAHNGFEGTIQRTHRPSYEDRVCFVATVRLATPQFIKEMCTVEEPNEEFTSRHSLEWKFLFLDHRAPPIIGYLPFEVLGTSGYDYYHVDDLENLAKCHEHLMQYGKGKSCYYRFLTKGQQWIWLQTHYYITYHQWNSRPEFIVCTHTVVSYAEVRAERRRELGIEESLPETAADKSQDSGSDNRINTVSLKEALERFDHSPTPSASSRSSRKSSHTAVSDPSSTPTKIPTDTSTPPRQHLPAHEKMVQRRSSFSSQSINSQSVGSSLTQPVMSQATNLPIPQGMSQFQFSAQLGAMQHLKDQLEQRTRMIEANIHRQQEELRKIQEQLQMVHGQGLQMFLQQSNPGLNFGSVQLSSGNSSNIQQLAPINMQGQVVPTNQIQSGMNTGHIGTTQHMIQQQTLQSTSTQSQQNVLSGHSQQTSLPSQTQSTLTAPLYNTMVISQPAAGSMVQIPSSMPQNSTQSAAVTTFTQDRQIRFSQGQQLVTKLVTAPVACGAVMVPSTMLMGQVVTAYPTFATQQQQSQTLSVTQQQQQQSSQEQQLTSVQQPSQAQLTQPPQQFLQTSRLLHGNPSTQLILSAAFPLQQSTFPQSHHQQHQSQQQQQLSRHRTDSLPDPSKVQPQ
# Target: Bmal1 with deletion of the carboxy (C)-terminal transactivation domain (TAD) region (mouse)
# Test: co-IP; Bmal1 immunoprecipitates from total extracts of HEK293T cells expressing His-tagged mouse Bmal1 truncated constructs; blot for CLOCK and VPS15
binder,measurement,value
B1,binding,binds
